Test results reported in PubChem BioAssay AID504467 (National Center for Advancing Translational Sciences (NCATS), 2011).
Among all 330,000 compounds or so, about 7,700 (2.3%) were called active. Inconclusive results, whose numbers are uncertain, are shown with a selection of clear calls. The call rests on the fitted dose curve; in most records, active means well fitted inhibition curve with a large enough effect; inconclusive means small, poorly fitted or top-dose-only effect, or effect the other way; inactive means flat fitted curve, though single readings scatter. Potencies beside an inconclusive call are fits to weak or partial responses and may not hold up.
On the % scale 0 is the no-effect control and ±100 the full control effect; potency means the concentration at half of the fitted maximal effect.

Experiment: qHTS screen for small molecules that inhibit ELG1-dependent DNA repair in human embryonic kidney (HEK293T) cells expressing luciferase-tagged ELG1; further: nearly all actives have a fitted effect of over 55% in size
Conditions: HEK293T ELG1-luciferase reporter, luminescence, 16 h, DNA damage induced by 5-fluorouridine; activity change, negative = inhibition: at 46.1 µM (top of the series)
Summary of the method: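 Step one: seed 2,000 cells per well. Step two: pin-transfer compound or DMSO alongside 5-fluorouridine. Step three: incubate 16 hr, 37 °C, 5% CO2. Step four: add ONE-Glo, wait 30 min, read luminescence.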
With `CC(C)C[C@H](NC(=O)c1nc[nH]c1C(=O)N[C@@H](CC(C)C)C(=O)OCc1ccccc1)C(=O)OCc1ccccc1` the “activity change, negative = inhibition” value was inactive: -19.9%.
With `O=C(c1cccc(S(=O)(=O)NCc2ccccc2)c1)N1CCN(c2ccc(F)cc2)CC1` the Potency was inconclusive: 23.1 µM [inhibitor, single point].
With `N#Cc1ccccc1S(=O)(=O)N1CCN(C(=O)C2COc3ccccc3O2)CC1` (stereo not drawn) the Potency was inconclusive: 16.4 µM [inhibitor, single point].
With `CN(c1ccc(C(=O)N2CCN(Cc3ccc4c(c3)OCO4)CC2)cc1)S(C)(=O)=O` the “activity change, negative = inhibition” value was inactive: -10.3%.
In the case of `COc1cc(C2c3c(oc4cc(C)c(C)cc4c3=O)C(=O)N2c2cc(C)ccn2)ccc1O` (stereo not drawn), the Potency is reported as inconclusive: 0.58 µM [inhibitor, partial curve, poor fit].
In the case of `CCOc1ccc(/C=N/NC(=O)c2cccc3ccccc23)c(OCC)c1`, the “activity change, negative = inhibition” value is reported as inactive: 3.61%.
In the case of `NC(=S)N/N=C\c1ccc(-c2cccc(Cl)c2Cl)o1`, the Potency is reported as inconclusive: 23.1 µM [inhibitor, single point].
With `CCOC(=O)c1cc(/C(C)=N/OC(=O)c2ccc(C(C)(C)C)cc2)on1` the “activity change, negative = inhibition” value was inactive: -13.1%.
In the case of `CCOC(=O)c1c(N)n(-c2ccc(N)cc2)c2nc3ccccc3nc12`, the Potency is reported as active: 9.2 µM.
In the case of `O=C(O)C(Cc1c[nH]c2ccccc12)NS(=O)(=O)c1cccc(Cl)c1Cl` (stereo not drawn), the Potency is reported as inconclusive: 6.51 µM [inhibitor, single point].
For `Cc1ccc(NC(=O)c2ccc3c(c2)OCCO3)nc1`, the Potency was inconclusive: 2.51 µM [activator, partial curve, poor fit].
For `CNC(=O)COC(=O)c1cc(-c2ccc(OC)cc2)nc2ccccc12`, the Potency was inconclusive: 20.6 µM [activator, single point].
For `COc1ccc(CCNC(=O)c2ccc(SC)cc2OC)cc1`, the Potency was inconclusive: 32.6 µM [inhibitor, single point].
For `CCOC(=O)C1=C(COC(=O)/C=C/c2cccc(Cl)c2)NC(=O)NC1C` (stereo not drawn), the Potency was inconclusive: 4.11 µM [activator, single point].
With `O=[N+]([O-])c1ccc(CSc2nc3ccccc3[nH]2)cc1` the Potency was inconclusive: 2.59 µM [activator, full curve].
In the case of `O=[N+]([O-])c1ccc(Sc2cccc[n+]2[O-])c2nonc12`, the Potency is reported as inconclusive: 29.1 µM [inhibitor, single point].
In the case of `COc1ccc(CNc2nc(NCc3ccc(OC)cc3)c3ncn(C4CCCC4)c3n2)cc1`, the Potency is reported as inconclusive: 4.61 µM [inhibitor, full curve].
For `O=C(/C=C/c1cccs1)Nc1nc(-c2ccccc2)cs1`, the Potency was inconclusive: 29.1 µM [inhibitor, single point].
For `COc1ccc(C(=O)NCc2ccccc2)cc1Br`, the “activity change, negative = inhibition” value was inactive: -2.07%.
In the case of `COc1cc(C(=S)N2CCOCC2)cc(Br)c1OS(=O)(=O)c1ccccc1`, the Potency is reported as active: 16.4 µM.
In the case of `COc1cc(OC)cc(C(=O)NC(C(=O)OCn2nnc3ccccc3c2=O)C(C)C)c1` (stereo not drawn), the “activity change, negative = inhibition” value is reported as inactive: 9.77%.
For `O=C(CNC(=O)c1ccccc1)N/N=C/c1cn[nH]c1-c1ccccc1`, the “activity change, negative = inhibition” value was inactive: -15.9%.
In the case of `O=C1CC(c2ccccc2)Sc2ccccc2N1` (stereo not drawn), the Potency is reported as inconclusive: 17.8 µM [activator, single point].
With `CN(C)S(=O)(=O)c1cccc(NC(=O)c2cccc(S(=O)(=O)N3CCCCCC3)c2)c1` the Potency was inconclusive: 20.6 µM [inhibitor, single point].
In the case of `COCCN(C(=O)Cc1cccs1)C(C(=O)NCc1ccc(OC)cc1)c1ccc(OC)cc1` (stereo not drawn), the Potency is reported as inconclusive: 29.1 µM [inhibitor, single point].
With `Cc1nnc(SCC(=O)Nc2cc(S(=O)(=O)N3CCCC3)ccc2Cl)n1C1CC1` the “activity change, negative = inhibition” value was inactive: 0.341%.
In the case of `CCOC(=O)c1[nH]c2ccccc2c1NC(=O)c1ccc(S(=O)(=O)N(C)C)cc1`, the “activity change, negative = inhibition” value is reported as inactive: -10.8%.
For `O=C1NC(=O)/C(=C\c2ccc(OCc3ccccc3)cc2)S1`, the Potency was inconclusive: 13 µM [activator, single point].
For `O=C1CC(Nc2ccc(N3CCOCC3)cc2)C(=O)N1c1ccccc1` (stereo not drawn), the “activity change, negative = inhibition” value was inactive: 4.19%.
With `O=C(Nc1ccccc1Cl)C1CCCN(c2ncnc3c2nc2n3CCCCC2)C1` (stereo not drawn) the Potency was inconclusive: 9.2 µM [inhibitor, partial curve, poor fit].
In the case of `CC(C)C[C@H](NC(=O)c1nc[nH]c1C(=O)NC(c1ccccc1)c1ccccc1)C(=O)OC(C)(C)C`, the Potency is reported as inconclusive: 20.6 µM [inhibitor, partial curve].
For `Cc1ncc(CO)c(/C=N/NC(=S)Nc2ccc(Cl)c(Cl)c2)c1O`, the Potency was inconclusive: 6.51 µM [inhibitor, single point].
In the case of `CC(=O)Nc1ccc(NC(=S)NC(=O)c2ccc([N+](=O)[O-])c(C)c2)cc1`, the Potency is reported as inconclusive: 29.1 µM [activator, single point].
In the case of `CCOC(=O)c1c(C)nc2ccccn12`, the “activity change, negative = inhibition” value is reported as inactive: 1.12%.
In the case of `CCOc1cc(-c2cc(-c3ccc(C)o3)nc(N)c2C#N)ccc1O`, the Potency is reported as active: 16.4 µM.
In the case of `O=S(Cc1ccc(Br)cc1)Cc1nnc(SCc2ccc(Cl)cc2)n1-c1ccccc1` (stereo not drawn), the Potency is reported as inconclusive: 16.4 µM [inhibitor, partial curve, poor fit].
In the case of `COC(=O)c1ccc(C(=O)Nc2ccc(F)cc2)cc1`, the Potency is reported as inconclusive: 3.16 µM [activator, partial curve].
In the case of `CC(=O)c1c(C)[nH]c(C(=O)OCC(=O)c2c[nH]c3ccccc23)c1C`, the Potency is reported as inconclusive: 2.59 µM [activator, single point].
For `COc1ccc(NC(=O)COc2ccccc2C(=O)NCC(c2ccccc2)N(C)C)cc1Cl` (stereo not drawn), the Potency was inconclusive: 25.9 µM [inhibitor, single point].
With `O=C(O)c1ccc(N/N=C/c2cccc(C(F)(F)F)c2)cc1` the Potency was inconclusive: 3.26 µM [activator, partial curve].
In the case of `O=C(N=c1ccn(-c2nc3ccccc3nc2NS(=O)(=O)c2ccc(Cl)cc2)cc1)c1ccccc1Cl`, the Potency is reported as inconclusive: 13 µM [inhibitor, partial curve].
For `Cc1nc(Nc2nc3ccccc3o2)nc(C)c1C`, the Potency was inconclusive: 1.83 µM [activator, partial curve].
In the case of `CC(=O)O/N=C/c1c(N2CCOCC2)n(C)c2ccccc12`, the Potency is reported as inconclusive: 14.6 µM [inhibitor, partial curve, poor fit].
In the case of `Oc1ccccc1/C=N/NC(=S)NC1CC2CC1C1C=CCC21` (stereo not drawn), the Potency is reported as inconclusive: 6.51 µM [activator, full curve].
For `O=C(Nc1nc(-c2ccccc2)nc2ccccc12)c1ccc(F)cc1`, the Potency was inconclusive: 16.4 µM [activator, single point].
With `O=C(COc1ccccc1[N+](=O)[O-])Nc1ccc2c(c1)CCC2` the Potency was inconclusive: 16.4 µM [activator, partial curve].
In the case of `Cc1cccc(N2CCN(C(=O)CCc3nc4ccccc4[nH]3)CC2C)c1` (stereo not drawn), the Potency is reported as inconclusive: 29.1 µM [inhibitor, single point].
For `CC/C(C)=N/NC(=O)c1[nH]c2ccc(C)cc2c1-c1ccccc1`, the “activity change, negative = inhibition” value was inactive: -4.42%.
In the case of `O=C(OCCc1cc2ccccc2c(=O)o1)c1ccc2c(c1)OCO2`, the Potency is reported as inconclusive: 11.6 µM [activator, partial curve, poor fit].
For `O=C(CSc1nnc(-c2csc3c2CCCC3)o1)Nc1ccccc1`, the Potency was inconclusive: 0.517 µM [activator, full curve].
For `COc1cc(OC)cc(C(=O)NCC(=O)OCC(=O)NC(C)CCc2ccccc2)c1` (stereo not drawn), the Potency was inconclusive: 23.1 µM [activator, single point].
For `CC1CCCC(NC(=O)CCC(=O)NCc2ccccc2)C1C` (stereo not drawn), the “activity change, negative = inhibition” value was inactive: 5.73%.
For `Cc1cc(=O)[nH]c(N2CCN(C(=O)c3ccco3)CC2)n1`, the Potency was inconclusive: 18.3 µM [activator, partial curve, poor fit].
With `CN1CCN(c2ccc(NC(=O)c3cc4ccccc4o3)cc2)CC1` the Potency was inconclusive: 6.51 µM [activator, partial curve].
With `CCOC(=O)c1cccc(NC(=O)c2ccc(N(C)C)cc2)c1` the Potency was inconclusive: 3.66 µM [activator, partial curve].
In the case of `COc1ccc(C(=O)COC(=O)c2ccc([N+](=O)[O-])s2)cc1OC`, the “activity change, negative = inhibition” value is reported as inactive: 12.6%.
For `CCOC(=O)c1ccc(Nc2ncccc2[N+](=O)[O-])cc1`, the Potency was inconclusive: 9.2 µM [activator, partial curve].
With `CCOC(=O)c1sc2ccccc2c1OC(=O)c1ccccc1OC` the Potency was inconclusive: 16.4 µM [inhibitor, partial curve, poor fit].
In the case of `O=C(COC(=O)C1CCC1)NCCc1ccc(Cl)cc1Cl`, the Potency is reported as inconclusive: 20.6 µM [activator, partial curve, poor fit].
With `O=C(N/N=C/c1ccoc1)c1cc(O)cc(O)c1` the Potency was inconclusive: 20.6 µM [activator, single point].
In the case of `CCCc1nc2c(c(=O)c3ccccc3n2C)c(=O)n1C1CCCCCC1`, the Potency is reported as inconclusive: 25.9 µM [inhibitor, partial curve].
In the case of `O=S1(=O)N=C(Nc2ccc(O)cc2)c2ccccc21`, the “activity change, negative = inhibition” value is reported as inactive: 10%.
For `OCC[C@@H]1C[C@H](O)[C@@H](O)[C@@]2(OCCCc3ccccc32)O1`, the “activity change, negative = inhibition” value was inactive: 1.56%.
For `Cc1ccn2cc(C(=O)NCc3ccco3)nc2c1`, the Potency was inconclusive: 16.4 µM [activator, partial curve].
With `CN(Cc1ccc(F)cc1)C(=O)CCc1nnc(-c2ccccc2)o1` the Potency was inconclusive: 20.6 µM [activator, partial curve].
In the case of `O=c1[nH]c(-c2ccccn2)cc2ccccc12`, the Potency is reported as inconclusive: 16.4 µM [activator, partial curve].
In the case of `CCc1ccc(NC(=S)N2CCN(c3cccc(C(F)(F)F)c3)CC2)cc1`, the “activity change, negative = inhibition” value is reported as inactive: 15.7%.
In the case of `COCCN(C(=O)c1ccco1)c1nnc(-c2ccc(OC)c(OC)c2)s1`, the Potency is reported as inconclusive: 20.6 µM [inhibitor, single point].
